Reference: the supplement of paper PMC5662767
Counter-ions that a name gives are not always drawn. The list shows a part of the results. Baselines shift from plate to plate; read single values as rough.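 Smoothened with circularly permuted GFP in its cytoplasmic tail is carried by a clonal Drosophila S2 line; fluorescence appears when Hh-driven phosphorylation opens an inhibitory loop. Per-cell signal, read by flow cytometry, was scaled to Hh-stimulated untreated cells. Hits were consistent fluorescence-shifting groups of inhibitors sharing pathway targets, not single compounds.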

System: Drosophila S2 cl14 SmoIP sensor cells
Experiment: normalized SmoIP GFP fluorescence (untreated unstimulated = 0%, untreated Hh-stimulated = 100%); higher = more Smo activation sensor fluorescence
Settings: compound concentration: 15 uM, 24 h
[1] = stimulation: Hh conditioned medium (+Hh)
[2] = stimulation: mock conditioned medium (-Hh)

O=C1NC(=O)/C(=C/c2ccc3nccc(-c4ccncc4)c3c2)S1
normalized SmoIP GFP fluorescence [1]: 79.7%
normalized SmoIP GFP fluorescence [2]: 12.4%

O=C(C=Cc1ccccc1)NC(NC(=S)Nc1ccc(Cl)cc1)C(Cl)(Cl)Cl (stereo unspecified)
normalized SmoIP GFP fluorescence [1]: 130%
normalized SmoIP GFP fluorescence [2]: 1.57%

CCCCCCCN(CC)CCCC(O)c1ccc(NS(C)(=O)=O)cc1 (stereo unspecified) [ibutilide-fumarate]
normalized SmoIP GFP fluorescence [1]: 182%
normalized SmoIP GFP fluorescence [2]: 9.08%

CNC(=O)c1ccc(-c2cnc3ncc(Cc4ccc5ncccc5c4)n3n2)cc1F
normalized SmoIP GFP fluorescence [1]: 144%
normalized SmoIP GFP fluorescence [2]: 14.2%

Cc1cc(Nc2ccc(NC(=O)c3ccc(Nc4ccnc5ccccc45)cc3)cc2)nc(N)n1
normalized SmoIP GFP fluorescence [1]: 143%
normalized SmoIP GFP fluorescence [2]: 2.35%

Fc1ccc([C@@H]2CCNC[C@H]2COc2ccc3c(c2)OCO3)cc1 [paroxetine-hcl]
normalized SmoIP GFP fluorescence [1]: 140%
normalized SmoIP GFP fluorescence [2]: 22.2%

CN(C)CC[C@H](CSc1ccccc1)Nc1ccc(S(=O)(=O)NC(=O)c2ccc(N3CCN(Cc4ccccc4-c4ccc(Cl)cc4)CC3)cc2)cc1[N+](=O)[O-]
normalized SmoIP GFP fluorescence [1]: 198%
normalized SmoIP GFP fluorescence [2]: 80.9%

COc1cc2nccc(Oc3ccc(NC(=O)Nc4cc(C)on4)c(Cl)c3)c2cc1OC
normalized SmoIP GFP fluorescence [1]: 114%
normalized SmoIP GFP fluorescence [2]: 79.3%

O=C(CCCCCN1C(=O)c2cccc3cccc(c23)C1=O)NO [scriptaid]
normalized SmoIP GFP fluorescence [1]: 144%
normalized SmoIP GFP fluorescence [2]: 6.28%

CCCCNc1ccc(C(=O)OCCN(C)C)cc1 [tetracaine-hydrochloride-pontocaine]
normalized SmoIP GFP fluorescence [1]: 161%
normalized SmoIP GFP fluorescence [2]: -8.23%

Oc1cc(O)c(Cl)cn1 [gimeracil]
normalized SmoIP GFP fluorescence [1]: 129%
normalized SmoIP GFP fluorescence [2]: -13.6%

O=C(c1cc(Cc2n[nH]c(=O)c3ccccc23)ccc1F)N1CCN(C(=O)C2CC2)CC1 [AZD2281(Olaparib)]
normalized SmoIP GFP fluorescence [1]: 158%
normalized SmoIP GFP fluorescence [2]: 16.8%

CN(C)CCC(c1ccc(Br)cc1)c1ccccn1 (stereo unspecified) [brompheniramine]
normalized SmoIP GFP fluorescence [1]: 134%
normalized SmoIP GFP fluorescence [2]: 4.3%
